Results: the supplement of paper PMC7666118
The other results are listed elsewhere or left out.

Chains of the proteins cited; added tags and fusions are not shown. Lines headed by an entry give the natural chain unless they say otherwise; changes in a name come on top.
UniProt Q8N442: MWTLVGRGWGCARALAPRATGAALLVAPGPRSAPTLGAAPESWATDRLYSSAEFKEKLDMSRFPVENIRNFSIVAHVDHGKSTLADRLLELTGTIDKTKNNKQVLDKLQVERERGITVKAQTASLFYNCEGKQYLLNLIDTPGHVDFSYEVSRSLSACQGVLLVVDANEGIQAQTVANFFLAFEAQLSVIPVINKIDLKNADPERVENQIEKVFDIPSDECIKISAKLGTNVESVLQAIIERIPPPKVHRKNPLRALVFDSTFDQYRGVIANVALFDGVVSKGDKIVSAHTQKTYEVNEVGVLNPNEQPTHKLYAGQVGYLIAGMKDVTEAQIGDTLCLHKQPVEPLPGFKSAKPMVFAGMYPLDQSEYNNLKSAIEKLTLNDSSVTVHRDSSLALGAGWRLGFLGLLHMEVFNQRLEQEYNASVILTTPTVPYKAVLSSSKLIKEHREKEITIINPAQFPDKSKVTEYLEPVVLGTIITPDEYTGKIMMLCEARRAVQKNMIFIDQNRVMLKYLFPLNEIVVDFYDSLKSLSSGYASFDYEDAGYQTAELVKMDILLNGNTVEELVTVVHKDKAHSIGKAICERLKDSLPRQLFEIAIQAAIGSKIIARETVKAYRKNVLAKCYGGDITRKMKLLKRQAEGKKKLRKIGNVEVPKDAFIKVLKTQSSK
UniProt Q9UHW5, whole entry: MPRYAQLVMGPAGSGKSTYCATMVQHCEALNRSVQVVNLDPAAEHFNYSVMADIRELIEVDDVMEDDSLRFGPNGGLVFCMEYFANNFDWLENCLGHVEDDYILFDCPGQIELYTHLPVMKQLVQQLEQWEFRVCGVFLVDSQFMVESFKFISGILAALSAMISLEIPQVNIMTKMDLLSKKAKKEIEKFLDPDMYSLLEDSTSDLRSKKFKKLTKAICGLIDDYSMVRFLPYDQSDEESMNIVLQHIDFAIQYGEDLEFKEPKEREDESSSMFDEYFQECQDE
UniProt Q92917: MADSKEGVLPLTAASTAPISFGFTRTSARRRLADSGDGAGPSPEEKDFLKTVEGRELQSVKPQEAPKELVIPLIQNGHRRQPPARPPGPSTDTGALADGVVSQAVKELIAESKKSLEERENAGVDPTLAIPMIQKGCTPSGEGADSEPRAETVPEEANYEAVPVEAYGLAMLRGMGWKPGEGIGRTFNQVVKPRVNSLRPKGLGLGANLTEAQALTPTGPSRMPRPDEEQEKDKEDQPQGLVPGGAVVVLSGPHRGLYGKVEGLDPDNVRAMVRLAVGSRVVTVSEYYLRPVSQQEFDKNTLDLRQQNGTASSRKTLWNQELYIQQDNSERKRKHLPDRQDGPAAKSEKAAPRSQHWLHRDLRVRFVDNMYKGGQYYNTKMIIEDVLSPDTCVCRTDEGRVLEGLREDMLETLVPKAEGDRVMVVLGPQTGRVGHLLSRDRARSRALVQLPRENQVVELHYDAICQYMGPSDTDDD
UniProt O00291: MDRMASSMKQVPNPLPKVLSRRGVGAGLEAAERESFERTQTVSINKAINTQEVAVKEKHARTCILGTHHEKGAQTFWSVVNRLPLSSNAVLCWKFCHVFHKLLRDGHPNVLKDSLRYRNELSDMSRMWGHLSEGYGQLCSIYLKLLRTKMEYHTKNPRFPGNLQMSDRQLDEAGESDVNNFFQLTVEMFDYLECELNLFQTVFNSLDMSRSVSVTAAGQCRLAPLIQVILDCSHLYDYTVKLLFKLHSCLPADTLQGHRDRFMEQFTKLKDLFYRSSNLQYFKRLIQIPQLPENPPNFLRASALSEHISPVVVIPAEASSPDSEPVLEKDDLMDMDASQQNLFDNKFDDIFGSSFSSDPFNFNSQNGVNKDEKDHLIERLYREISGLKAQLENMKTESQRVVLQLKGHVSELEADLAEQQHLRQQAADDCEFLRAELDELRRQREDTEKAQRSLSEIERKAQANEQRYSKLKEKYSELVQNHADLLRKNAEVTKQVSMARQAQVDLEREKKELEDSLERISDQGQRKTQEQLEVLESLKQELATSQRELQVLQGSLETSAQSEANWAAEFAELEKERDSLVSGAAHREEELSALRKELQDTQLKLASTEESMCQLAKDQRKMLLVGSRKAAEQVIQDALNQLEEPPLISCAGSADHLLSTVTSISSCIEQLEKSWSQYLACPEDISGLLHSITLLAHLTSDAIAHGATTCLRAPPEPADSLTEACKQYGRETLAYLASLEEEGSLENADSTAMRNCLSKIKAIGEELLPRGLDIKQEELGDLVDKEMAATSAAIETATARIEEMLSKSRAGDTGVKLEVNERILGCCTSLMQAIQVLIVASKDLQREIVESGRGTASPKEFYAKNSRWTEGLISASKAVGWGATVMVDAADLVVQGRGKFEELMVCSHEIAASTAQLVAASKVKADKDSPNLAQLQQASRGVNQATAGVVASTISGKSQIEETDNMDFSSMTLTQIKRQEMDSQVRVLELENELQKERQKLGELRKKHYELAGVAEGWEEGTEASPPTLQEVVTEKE
UniProt Q9NYZ3: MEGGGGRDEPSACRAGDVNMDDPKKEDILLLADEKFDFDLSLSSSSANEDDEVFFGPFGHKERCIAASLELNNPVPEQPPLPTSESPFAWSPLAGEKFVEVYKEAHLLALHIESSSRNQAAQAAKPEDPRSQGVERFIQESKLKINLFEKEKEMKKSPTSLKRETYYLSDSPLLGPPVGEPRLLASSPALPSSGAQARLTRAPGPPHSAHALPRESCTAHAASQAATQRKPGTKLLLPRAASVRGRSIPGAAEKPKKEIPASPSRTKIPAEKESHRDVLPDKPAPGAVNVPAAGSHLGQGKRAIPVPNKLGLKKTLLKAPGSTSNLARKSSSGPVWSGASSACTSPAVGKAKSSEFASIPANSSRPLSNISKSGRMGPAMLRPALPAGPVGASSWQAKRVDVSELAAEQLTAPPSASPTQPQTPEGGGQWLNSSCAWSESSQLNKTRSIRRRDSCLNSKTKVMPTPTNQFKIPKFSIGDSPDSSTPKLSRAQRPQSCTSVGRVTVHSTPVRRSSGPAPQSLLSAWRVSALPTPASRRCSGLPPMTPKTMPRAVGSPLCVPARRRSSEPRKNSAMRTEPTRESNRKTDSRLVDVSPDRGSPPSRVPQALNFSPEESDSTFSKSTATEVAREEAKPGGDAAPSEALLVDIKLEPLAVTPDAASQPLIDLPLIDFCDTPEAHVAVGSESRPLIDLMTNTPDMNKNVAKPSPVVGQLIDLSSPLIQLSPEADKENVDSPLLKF
UniProt P36969, whole entry: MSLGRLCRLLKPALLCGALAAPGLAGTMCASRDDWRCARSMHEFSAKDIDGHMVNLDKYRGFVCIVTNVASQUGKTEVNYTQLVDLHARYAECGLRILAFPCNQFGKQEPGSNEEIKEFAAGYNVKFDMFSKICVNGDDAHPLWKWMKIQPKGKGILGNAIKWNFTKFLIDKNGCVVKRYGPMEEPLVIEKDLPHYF
UniProt Q9NZ01: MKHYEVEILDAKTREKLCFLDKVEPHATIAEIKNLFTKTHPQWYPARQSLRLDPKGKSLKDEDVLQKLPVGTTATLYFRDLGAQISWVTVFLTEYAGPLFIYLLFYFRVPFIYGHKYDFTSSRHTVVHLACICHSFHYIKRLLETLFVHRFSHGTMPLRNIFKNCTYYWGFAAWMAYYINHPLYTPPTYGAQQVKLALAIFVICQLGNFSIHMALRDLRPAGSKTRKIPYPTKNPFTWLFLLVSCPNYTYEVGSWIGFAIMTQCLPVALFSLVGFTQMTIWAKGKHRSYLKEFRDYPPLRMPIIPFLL
UniProt Q9BX10: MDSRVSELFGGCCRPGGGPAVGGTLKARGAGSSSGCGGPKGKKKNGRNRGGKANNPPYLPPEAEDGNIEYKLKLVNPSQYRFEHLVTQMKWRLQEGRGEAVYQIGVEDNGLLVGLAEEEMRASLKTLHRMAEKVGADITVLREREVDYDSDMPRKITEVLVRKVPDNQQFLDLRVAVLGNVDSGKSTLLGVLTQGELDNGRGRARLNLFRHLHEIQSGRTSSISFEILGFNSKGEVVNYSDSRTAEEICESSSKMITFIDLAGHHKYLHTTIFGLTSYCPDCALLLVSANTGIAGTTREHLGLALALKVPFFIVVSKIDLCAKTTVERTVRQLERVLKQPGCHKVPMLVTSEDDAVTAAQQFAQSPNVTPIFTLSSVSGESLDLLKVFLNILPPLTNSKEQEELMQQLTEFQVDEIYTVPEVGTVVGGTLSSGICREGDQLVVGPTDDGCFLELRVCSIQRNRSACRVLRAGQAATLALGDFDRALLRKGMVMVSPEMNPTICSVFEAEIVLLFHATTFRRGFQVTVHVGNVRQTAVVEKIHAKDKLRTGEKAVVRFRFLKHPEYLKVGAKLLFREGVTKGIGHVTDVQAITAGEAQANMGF
UniProt Q6YN16: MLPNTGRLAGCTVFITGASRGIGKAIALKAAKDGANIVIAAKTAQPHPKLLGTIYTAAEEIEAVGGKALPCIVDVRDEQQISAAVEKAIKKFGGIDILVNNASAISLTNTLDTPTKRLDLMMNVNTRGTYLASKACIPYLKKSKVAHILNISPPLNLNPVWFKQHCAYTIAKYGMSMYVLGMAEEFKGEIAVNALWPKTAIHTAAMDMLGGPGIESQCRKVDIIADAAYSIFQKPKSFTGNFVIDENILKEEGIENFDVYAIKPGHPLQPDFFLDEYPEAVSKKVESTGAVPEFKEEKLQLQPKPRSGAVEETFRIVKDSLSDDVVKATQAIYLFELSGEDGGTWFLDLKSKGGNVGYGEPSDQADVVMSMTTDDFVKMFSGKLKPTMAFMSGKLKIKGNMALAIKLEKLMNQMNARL
UniProt Q8NBQ5: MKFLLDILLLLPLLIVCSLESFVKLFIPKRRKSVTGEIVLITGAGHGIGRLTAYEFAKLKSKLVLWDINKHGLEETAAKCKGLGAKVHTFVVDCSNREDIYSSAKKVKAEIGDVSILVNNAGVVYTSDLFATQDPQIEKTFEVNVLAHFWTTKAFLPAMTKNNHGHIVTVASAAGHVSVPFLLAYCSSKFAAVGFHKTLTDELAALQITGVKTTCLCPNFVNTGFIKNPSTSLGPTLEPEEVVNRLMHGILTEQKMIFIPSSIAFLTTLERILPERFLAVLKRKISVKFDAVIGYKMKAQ
UniProt P16402, whole entry: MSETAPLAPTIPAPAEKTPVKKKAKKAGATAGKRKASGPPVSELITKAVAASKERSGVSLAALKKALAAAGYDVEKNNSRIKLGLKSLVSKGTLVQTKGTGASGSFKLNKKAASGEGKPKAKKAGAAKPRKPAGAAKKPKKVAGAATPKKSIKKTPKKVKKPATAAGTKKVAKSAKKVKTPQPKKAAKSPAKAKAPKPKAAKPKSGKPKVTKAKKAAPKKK
UniProt P06396, whole entry: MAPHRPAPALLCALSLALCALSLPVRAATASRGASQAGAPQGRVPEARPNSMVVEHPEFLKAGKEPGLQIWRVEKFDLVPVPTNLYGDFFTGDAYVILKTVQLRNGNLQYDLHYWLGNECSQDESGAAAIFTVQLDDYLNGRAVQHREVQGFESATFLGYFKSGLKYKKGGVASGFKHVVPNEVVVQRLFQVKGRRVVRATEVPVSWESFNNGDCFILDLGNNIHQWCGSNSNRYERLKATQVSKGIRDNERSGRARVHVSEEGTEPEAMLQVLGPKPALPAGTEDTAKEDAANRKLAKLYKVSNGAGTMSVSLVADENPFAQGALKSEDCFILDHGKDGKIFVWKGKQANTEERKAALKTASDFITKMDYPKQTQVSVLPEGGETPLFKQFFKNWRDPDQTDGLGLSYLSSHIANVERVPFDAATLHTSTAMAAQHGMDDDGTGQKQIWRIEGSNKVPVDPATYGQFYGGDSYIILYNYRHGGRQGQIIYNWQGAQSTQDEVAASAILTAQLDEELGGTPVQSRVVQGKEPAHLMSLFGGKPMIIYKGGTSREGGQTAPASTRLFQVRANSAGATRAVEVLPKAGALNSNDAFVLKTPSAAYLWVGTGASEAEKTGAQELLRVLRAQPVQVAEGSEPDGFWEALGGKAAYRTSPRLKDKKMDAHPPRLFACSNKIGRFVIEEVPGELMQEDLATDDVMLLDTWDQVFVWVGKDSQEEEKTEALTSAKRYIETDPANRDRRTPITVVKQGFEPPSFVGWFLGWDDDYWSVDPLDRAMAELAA
UniProt Q13888: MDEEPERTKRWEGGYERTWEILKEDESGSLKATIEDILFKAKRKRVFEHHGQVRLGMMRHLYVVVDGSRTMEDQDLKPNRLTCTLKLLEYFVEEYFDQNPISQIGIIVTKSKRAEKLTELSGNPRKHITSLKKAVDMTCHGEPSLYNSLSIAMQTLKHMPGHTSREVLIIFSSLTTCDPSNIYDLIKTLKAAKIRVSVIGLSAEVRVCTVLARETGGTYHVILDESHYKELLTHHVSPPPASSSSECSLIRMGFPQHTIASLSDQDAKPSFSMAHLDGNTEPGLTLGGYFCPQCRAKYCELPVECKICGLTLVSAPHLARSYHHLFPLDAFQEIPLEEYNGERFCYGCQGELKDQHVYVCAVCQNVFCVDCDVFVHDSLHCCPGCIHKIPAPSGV
UniProt Q9Y547: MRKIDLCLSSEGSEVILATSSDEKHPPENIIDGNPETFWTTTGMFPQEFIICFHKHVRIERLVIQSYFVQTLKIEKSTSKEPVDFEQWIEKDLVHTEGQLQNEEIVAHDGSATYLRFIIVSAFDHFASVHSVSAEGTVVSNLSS

compound: COc1ccc(Cn2ccc3cc(C)c(C(=O)NO)cc32)cc1; test: dose-dependent thermal stabilisation call (2D-TPP, DLPTP, 10% FDR) (binary (1 = stabilised)); higher = stabilised by the compound; settings: system: HL-60 intact cells; concentration range 0.04-10 µM
Description: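 2D thermal proteome profiling in intact HL-60 cells treated with BRD-3811 (0, 0.04, 0.29, 2, 10 uM) for 90 min at 37 C, then heated 3 min at one of 12 temperatures (42-63.9 C). Soluble protein was quantified by TMT10 MS. The value is the DLPTP call of the paper: dose-dependent thermal stabilisation over all temperatures at 10% FDR (F-test of a dose-response against a flat model); one experiment, one call per tested protein.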

| Target | dose-dependent thermal stabilisation call |
| --- | --- |
| HOMER1 (UniProt Q86YM7) | inactive: 0 |
| HIRA (UniProt P54198) | inactive: 0 |
| HIF1AN (UniProt Q9NWT6) | inactive: 0 |
| GUF1 (UniProt Q8N442) | inactive: 0 |
| GTF2I (UniProt P78347) | inactive: 0 |
| GPN3 (UniProt Q9UHW5) | inactive: 0 |
| GSR (UniProt P00390) | inactive: 0 |
| HELLS (UniProt Q9NRZ9) | inactive: 0 |
| GPKOW (UniProt Q92917) | inactive: 0 |
| HIP1 (UniProt O00291) | inactive: 0 |
| GTSE1 (UniProt Q9NYZ3) | inactive: 0 |
| HCG_18290 | inactive: 0 |
| HAX1 (UniProt O00165) | inactive: 0 |
| GPX4 (UniProt P36969) | inactive: 0 |
| HSPA5 (UniProt P11021) | inactive: 0 |
| GPSN2 (UniProt Q9NZ01) | inactive: 0 |
| GTPBP2 (UniProt Q9BX10) | inactive: 0 |
| HERC2 (UniProt O95714) | inactive: 0 |

2 successive records already listed, for reference:

| Target | dose-dependent thermal stabilisation call |
| --- | --- |
| HIF1AN (UniProt Q9NWT6) | inactive: 0 |
| GUF1 (UniProt Q8N442) | inactive: 0 |

Additional results.

| Target | dose-dependent thermal stabilisation call |
| --- | --- |
| GOLGA5 (UniProt Q8TBA6) | inactive: 0 |
| HIATL1 (UniProt Q5SR56) | inactive: 0 |
| GRPEL2 (UniProt Q8TAA5) | inactive: 0 |
| H2AFZ (UniProt P0C0S5) | inactive: 0 |
| HSD17B12 (UniProt Q53GQ0) | inactive: 0 |
| HSDL2 (UniProt Q6YN16) | inactive: 0 |
| HSD17B11 (UniProt Q8NBQ5) | inactive: 0 |
| GPR183 (UniProt P32249) | inactive: 0 |
| HIST1H1D (UniProt P16402) | inactive: 0 |
| HADHA (UniProt P40939) | inactive: 0 |
| HAT1 (UniProt O14929) | inactive: 0 |
| GSN (UniProt P06396) | inactive: 0 |
| GTF2H2 (UniProt Q13888) | inactive: 0 |
| HNRNPK (UniProt P61978) | inactive: 0 |
| HBB (UniProt P68871) | inactive: 0 |
| HSPB11 (UniProt Q9Y547) | inactive: 0 |
| HIBCH (UniProt Q6NVY1) | inactive: 0 |
